Measurements reported in the supplement of paper PMC12823440, “Inhibitors supercharge kinase turnover through native proteolytic circuits” (Nature, 2025).
The list shows a part of the results. Hit calls seldom repeat between salt and free forms of one compound.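 Kinases, fused to nanoluciferase, were expressed in K562 cells; luminescence was measured every 4 h from 2 to 18 h as percent of control (DMSO = 100%, positive control = 0%). A time point is decreased if signal falls significantly (2 sigma). Hits were called by the authors by a rule that is not shown; the count of time points alone does not decide it.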

By UniProt entry, the sequences of proteins in these tests, tags left out. Where a name states a change or a piece, a line headed by the entry shows the natural chain unless it says otherwise.
UniProt Q9Y616: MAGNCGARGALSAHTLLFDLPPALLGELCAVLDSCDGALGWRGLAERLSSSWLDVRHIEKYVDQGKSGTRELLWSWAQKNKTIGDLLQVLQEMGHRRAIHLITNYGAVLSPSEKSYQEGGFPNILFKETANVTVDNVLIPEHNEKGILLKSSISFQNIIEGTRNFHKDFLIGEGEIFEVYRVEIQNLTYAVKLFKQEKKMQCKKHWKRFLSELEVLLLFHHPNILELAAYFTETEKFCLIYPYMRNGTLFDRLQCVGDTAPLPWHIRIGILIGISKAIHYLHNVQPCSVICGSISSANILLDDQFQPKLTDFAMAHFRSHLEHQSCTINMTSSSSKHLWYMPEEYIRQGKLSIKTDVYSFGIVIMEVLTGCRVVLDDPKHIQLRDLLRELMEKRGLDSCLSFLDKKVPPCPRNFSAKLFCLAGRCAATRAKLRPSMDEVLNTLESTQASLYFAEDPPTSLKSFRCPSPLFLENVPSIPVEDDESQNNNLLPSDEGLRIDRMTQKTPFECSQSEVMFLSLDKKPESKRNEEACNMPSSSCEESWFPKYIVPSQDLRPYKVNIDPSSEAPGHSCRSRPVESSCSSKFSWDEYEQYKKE
UniProt P23458: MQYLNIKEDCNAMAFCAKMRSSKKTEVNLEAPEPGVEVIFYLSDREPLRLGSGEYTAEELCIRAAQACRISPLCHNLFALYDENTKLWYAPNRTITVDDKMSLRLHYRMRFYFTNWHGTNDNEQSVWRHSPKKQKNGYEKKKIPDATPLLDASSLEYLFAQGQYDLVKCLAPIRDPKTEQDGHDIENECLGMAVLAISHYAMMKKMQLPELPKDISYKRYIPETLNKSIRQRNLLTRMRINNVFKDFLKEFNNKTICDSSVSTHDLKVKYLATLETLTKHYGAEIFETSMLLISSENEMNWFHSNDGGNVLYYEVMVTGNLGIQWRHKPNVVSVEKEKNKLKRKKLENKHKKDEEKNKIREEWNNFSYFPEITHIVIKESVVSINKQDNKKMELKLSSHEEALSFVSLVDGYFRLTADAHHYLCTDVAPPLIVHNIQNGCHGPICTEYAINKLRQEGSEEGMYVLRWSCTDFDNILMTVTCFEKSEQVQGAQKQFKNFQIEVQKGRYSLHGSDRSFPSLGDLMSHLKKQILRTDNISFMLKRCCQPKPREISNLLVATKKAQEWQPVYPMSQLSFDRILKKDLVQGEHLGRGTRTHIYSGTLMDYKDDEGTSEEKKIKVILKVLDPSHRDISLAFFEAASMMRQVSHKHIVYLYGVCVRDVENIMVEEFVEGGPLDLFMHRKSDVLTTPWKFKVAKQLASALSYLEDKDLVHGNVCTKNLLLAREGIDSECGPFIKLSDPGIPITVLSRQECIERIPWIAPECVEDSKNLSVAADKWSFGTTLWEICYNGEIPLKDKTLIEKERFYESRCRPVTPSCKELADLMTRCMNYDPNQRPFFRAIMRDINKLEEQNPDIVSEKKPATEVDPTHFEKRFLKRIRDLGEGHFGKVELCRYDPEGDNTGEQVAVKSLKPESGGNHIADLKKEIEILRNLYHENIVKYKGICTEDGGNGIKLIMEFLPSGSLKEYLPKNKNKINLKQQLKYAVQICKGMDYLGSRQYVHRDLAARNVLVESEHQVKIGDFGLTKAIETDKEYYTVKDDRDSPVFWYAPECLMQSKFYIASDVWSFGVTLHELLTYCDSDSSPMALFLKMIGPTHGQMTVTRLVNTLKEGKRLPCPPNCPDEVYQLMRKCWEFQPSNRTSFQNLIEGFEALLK
UniProt P06239: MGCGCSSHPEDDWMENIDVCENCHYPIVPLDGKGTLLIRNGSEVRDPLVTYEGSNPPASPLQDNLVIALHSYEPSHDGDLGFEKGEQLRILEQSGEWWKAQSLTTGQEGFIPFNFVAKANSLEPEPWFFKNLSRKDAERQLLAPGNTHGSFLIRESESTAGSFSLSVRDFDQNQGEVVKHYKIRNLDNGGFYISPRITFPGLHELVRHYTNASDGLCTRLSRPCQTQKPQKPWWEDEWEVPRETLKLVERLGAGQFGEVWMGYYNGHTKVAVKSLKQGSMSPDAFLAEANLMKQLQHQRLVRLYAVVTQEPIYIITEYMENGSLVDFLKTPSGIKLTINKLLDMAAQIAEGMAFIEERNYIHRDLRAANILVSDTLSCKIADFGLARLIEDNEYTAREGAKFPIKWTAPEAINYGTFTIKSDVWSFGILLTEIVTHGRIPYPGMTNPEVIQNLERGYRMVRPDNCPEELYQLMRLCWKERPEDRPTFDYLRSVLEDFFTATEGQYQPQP
UniProt P53667: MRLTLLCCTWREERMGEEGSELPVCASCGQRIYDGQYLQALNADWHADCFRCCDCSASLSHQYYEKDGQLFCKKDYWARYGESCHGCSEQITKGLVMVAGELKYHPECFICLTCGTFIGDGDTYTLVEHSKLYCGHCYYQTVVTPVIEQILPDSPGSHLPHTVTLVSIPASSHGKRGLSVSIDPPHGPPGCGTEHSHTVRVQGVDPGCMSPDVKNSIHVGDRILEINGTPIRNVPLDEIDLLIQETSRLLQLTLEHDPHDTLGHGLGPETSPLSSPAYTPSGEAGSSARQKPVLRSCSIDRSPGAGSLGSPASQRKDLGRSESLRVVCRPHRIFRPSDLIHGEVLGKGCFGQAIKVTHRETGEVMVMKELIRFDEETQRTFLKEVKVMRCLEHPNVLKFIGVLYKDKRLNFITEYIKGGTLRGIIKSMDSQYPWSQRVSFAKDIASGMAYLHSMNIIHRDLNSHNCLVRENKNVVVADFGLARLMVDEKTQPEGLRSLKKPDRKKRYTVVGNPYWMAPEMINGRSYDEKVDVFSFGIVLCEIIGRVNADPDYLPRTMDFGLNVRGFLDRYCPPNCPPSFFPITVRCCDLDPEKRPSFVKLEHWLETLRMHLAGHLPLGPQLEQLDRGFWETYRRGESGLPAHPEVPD
UniProt P53671: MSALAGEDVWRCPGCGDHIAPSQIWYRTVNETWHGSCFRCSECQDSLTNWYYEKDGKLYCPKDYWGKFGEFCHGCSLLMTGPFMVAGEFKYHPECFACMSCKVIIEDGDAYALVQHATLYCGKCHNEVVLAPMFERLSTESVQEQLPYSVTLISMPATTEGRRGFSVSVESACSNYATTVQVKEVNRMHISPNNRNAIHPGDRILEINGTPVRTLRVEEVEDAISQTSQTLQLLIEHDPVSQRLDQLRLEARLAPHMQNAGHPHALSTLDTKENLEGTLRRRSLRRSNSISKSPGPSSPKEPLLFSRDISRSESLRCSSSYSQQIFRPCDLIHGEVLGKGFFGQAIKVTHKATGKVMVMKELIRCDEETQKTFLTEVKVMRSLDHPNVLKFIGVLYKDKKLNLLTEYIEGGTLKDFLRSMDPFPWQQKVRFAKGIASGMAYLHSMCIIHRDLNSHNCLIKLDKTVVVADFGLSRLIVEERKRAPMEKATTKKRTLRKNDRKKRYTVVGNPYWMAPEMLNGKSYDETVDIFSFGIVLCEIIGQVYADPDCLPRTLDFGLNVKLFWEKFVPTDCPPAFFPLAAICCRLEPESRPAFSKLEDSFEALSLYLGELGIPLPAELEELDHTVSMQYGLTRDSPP
UniProt Q8IWU2: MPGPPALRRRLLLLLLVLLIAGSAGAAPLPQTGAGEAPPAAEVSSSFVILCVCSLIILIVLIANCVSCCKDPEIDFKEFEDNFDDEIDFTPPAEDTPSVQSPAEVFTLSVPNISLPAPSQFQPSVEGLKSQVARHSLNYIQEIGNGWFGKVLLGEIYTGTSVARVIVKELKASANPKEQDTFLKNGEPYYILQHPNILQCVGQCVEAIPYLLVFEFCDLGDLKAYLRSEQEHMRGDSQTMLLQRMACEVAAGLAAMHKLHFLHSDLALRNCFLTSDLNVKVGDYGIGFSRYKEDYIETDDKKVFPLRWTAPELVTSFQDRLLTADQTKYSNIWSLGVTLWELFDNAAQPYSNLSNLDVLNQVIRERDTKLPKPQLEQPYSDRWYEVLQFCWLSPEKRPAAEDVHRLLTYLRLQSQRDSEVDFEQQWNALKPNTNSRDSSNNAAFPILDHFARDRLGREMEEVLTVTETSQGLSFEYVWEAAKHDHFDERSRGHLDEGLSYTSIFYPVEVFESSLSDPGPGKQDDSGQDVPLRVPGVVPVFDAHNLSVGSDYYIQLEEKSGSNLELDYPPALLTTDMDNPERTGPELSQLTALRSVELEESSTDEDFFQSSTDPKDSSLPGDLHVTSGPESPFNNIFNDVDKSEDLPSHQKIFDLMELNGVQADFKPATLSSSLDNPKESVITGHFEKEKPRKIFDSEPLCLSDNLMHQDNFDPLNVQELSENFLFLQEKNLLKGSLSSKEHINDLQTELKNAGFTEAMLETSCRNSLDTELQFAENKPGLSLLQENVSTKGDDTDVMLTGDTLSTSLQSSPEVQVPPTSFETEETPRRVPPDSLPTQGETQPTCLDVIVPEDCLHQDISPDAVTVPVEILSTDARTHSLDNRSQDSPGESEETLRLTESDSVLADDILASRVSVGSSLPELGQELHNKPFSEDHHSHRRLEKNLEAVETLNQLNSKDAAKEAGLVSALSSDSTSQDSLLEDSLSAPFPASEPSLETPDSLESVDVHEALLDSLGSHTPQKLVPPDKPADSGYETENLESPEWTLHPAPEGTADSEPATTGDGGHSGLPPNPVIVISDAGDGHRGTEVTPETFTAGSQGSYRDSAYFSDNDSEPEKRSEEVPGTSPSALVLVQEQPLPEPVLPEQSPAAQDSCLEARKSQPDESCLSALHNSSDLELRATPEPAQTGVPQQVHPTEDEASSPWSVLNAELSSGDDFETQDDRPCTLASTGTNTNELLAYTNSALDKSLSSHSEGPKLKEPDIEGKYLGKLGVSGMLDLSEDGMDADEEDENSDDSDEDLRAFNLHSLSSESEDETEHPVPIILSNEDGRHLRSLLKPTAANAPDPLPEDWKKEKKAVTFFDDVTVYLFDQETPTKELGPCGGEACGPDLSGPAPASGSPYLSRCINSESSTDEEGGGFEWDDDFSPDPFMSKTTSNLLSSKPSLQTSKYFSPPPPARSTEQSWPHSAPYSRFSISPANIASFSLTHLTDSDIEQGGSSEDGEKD
UniProt P07948: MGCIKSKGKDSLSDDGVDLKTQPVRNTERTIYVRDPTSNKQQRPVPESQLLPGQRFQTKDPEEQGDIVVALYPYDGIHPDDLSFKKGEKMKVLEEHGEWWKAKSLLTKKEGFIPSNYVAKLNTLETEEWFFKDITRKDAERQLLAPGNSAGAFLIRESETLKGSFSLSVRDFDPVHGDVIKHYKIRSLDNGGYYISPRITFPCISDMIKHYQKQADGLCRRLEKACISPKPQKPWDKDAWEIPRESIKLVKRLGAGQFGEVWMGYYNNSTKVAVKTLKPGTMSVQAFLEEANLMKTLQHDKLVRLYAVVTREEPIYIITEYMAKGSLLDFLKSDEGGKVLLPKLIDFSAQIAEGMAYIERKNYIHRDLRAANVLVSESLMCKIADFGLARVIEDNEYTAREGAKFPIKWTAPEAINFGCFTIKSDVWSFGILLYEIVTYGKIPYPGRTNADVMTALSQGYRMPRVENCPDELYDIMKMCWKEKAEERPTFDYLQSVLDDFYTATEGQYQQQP
UniProt Q12851: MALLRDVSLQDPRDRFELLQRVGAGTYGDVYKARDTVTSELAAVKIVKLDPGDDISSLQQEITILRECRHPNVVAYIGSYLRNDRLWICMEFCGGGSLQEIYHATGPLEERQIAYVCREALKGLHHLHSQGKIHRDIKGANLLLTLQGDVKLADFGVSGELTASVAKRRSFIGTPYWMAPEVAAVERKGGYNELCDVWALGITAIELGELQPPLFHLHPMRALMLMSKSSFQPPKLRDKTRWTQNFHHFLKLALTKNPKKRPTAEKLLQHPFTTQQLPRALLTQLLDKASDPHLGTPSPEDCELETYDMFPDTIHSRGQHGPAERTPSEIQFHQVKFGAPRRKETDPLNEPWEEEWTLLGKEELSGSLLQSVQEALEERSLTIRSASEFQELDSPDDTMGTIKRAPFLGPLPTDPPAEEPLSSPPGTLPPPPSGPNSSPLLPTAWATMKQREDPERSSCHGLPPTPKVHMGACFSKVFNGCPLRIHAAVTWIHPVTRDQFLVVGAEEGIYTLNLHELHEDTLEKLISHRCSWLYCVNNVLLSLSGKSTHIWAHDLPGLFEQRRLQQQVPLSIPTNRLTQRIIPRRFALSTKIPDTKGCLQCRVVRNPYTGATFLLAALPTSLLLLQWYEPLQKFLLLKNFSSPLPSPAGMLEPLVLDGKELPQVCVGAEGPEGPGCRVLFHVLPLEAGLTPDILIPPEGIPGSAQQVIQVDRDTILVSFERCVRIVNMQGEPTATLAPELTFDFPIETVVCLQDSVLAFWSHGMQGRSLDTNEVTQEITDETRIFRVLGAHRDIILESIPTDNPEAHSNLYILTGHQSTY

Tests used:
Test in all cases: kinase-Nluc reporter destabilization hit call (1 = scored as downregulated) (binary); higher = compound decreases kinase abundance
Conditions in all cases: K562; 2-18 h
IRAK3 = IRAK3 (UniProt Q9Y616)
JAK1 = JAK1 (UniProt P23458)
LCK = LCK (UniProt P06239)
LIMK1 = LIMK1 (UniProt P53667)
LIMK2 = LIMK2 (UniProt P53671)
LMTK2 = LMTK2 (UniProt Q8IWU2)
LYN = LYN (UniProt P07948)
MAP2K1 = MAP2K1 (UniProt Q02750)
MAP2K2 = MAP2K2 (UniProt P36507)
MAP4K2 = MAP4K2 (UniProt Q12851)

Measured: kinase-Nluc reporter destabilization hit call

NCCc1cn(S(=O)(=O)c2c(Cl)nc3sccn23)c2ccccc12 (10 µM)
inactive: IRAK3 = 0 | JAK1 = 0 | LCK 0 | LIMK1 = 0 | LIMK2 = 0 | LMTK2 = 0 | LYN 0 | MAP2K1 = 0 | MAP2K2 = 0 | MAP4K2 = 0

C[S+]([O-])/C=C/CCN=C=S (stereo not given) [Sulforaphene] (10 µM)
inactive: IRAK3 = 0 | JAK1 = 0 | LCK 0 | LIMK1 = 0 | LIMK2 = 0 | LMTK2 = 0 | LYN 0 | MAP2K1 = 0 | MAP2K2 = 0 | MAP4K2 = 0

CC(=O)c1c(O)c(C)c(O)c(Cc2c(O)c3c(c(C(=O)/C=C/c4ccccc4)c2O)OC(C)(C)C=C3)c1O [Rottlerin] (2 µM)
inactive: IRAK3 = 0 | JAK1 = 0 | LCK 0 | LIMK1 = 0 | LIMK2 = 0 | LMTK2 = 0 | LYN 0 | MAP2K1 = 0 | MAP2K2 = 0 | MAP4K2 = 0

CCCS(=O)(=O)Nc1ccc(F)c(-n2cc(-c3cncnc3)c3nc(N(C)C4CCN(CC)CC4)ccc32)c1F (2 µM)
inactive: IRAK3 = 0 | JAK1 = 0 | LCK 0 | LIMK1 = 0 | LIMK2 = 0 | LMTK2 = 0 | LYN 0 | MAP2K1 = 0 | MAP2K2 = 0 | MAP4K2 = 0

COc1ccc(N(C(=O)Oc2c(C)cccc2C)c2ccnc(Nc3ccc(N4CCN(C)CC4)cc3)n2)c(OC)c1 (2.5 µM)
inactive: IRAK3 = 0 | JAK1 = 0 | LCK 0 | LIMK1 = 0 | LIMK2 = 0 | LMTK2 = 0 | LYN 0 | MAP2K1 = 0 | MAP2K2 = 0 | MAP4K2 = 0

CCCCNc1nc(N)c2[nH]c(=O)n(Cc3ccc(C)nc3)c2n1 (10 µM)
inactive: IRAK3 = 0 | JAK1 = 0 | LCK 0 | LIMK1 = 0 | LIMK2 = 0 | LMTK2 = 0 | LYN 0 | MAP2K1 = 0 | MAP2K2 = 0 | MAP4K2 = 0

Cc1ccccc1-n1c(Cn2ncc3c(N)ncnc32)nc2cccc(C)c2c1=O (10 µM)
inactive: IRAK3 = 0 | JAK1 = 0 | LCK 0 | LIMK1 = 0 | LIMK2 = 0 | LMTK2 = 0 | LYN 0 | MAP2K1 = 0 | MAP2K2 = 0 | MAP4K2 = 0

O=C1C=CC[C@@H]2[C@H]3CCCN4CCC[C@@H](CN12)[C@@H]34 [Sophocarpine] (10 µM)
inactive: IRAK3 = 0 | JAK1 = 0 | LCK 0 | LIMK1 = 0 | LIMK2 = 0 | LMTK2 = 0 | LYN 0 | MAP2K1 = 0 | MAP2K2 = 0 | MAP4K2 = 0

Fetched by structure from above, two records:
COc1ccc(N(C(=O)Oc2c(C)cccc2C)c2ccnc(Nc3ccc(N4CCN(C)CC4)cc3)n2)c(OC)c1 (2.5 µM)
inactive: IRAK3 = 0 | JAK1 = 0 | LCK 0 | LIMK1 = 0 | LIMK2 = 0 | LMTK2 = 0 | LYN 0 | MAP2K1 = 0 | MAP2K2 = 0 | MAP4K2 = 0

Cc1ccccc1-n1c(Cn2ncc3c(N)ncnc32)nc2cccc(C)c2c1=O (10 µM)
inactive: IRAK3 = 0 | JAK1 = 0 | LCK 0 | LIMK1 = 0 | LIMK2 = 0 | LMTK2 = 0 | LYN 0 | MAP2K1 = 0 | MAP2K2 = 0 | MAP4K2 = 0

Following part:

CCOC(=O)c1c(/C(C#N)=C\N)c2ccc(Cl)c(Cl)c2n1C (10 µM)
inactive: IRAK3 = 0 | JAK1 = 0 | LCK 0 | LIMK1 = 0 | LIMK2 = 0 | LMTK2 = 0 | LYN 0 | MAP2K1 = 0 | MAP2K2 = 0 | MAP4K2 = 0

O=C(O)c1sc2cc(Cl)ccc2c1Cl (10 µM)
inactive: IRAK3 = 0 | JAK1 = 0 | LCK 0 | LIMK1 = 0 | LIMK2 = 0 | LMTK2 = 0 | LYN 0 | MAP2K1 = 0 | MAP2K2 = 0 | MAP4K2 = 0

C=CC(=O)Nc1ccc2[nH]c(=O)n(C3CCN(Cc4ccc(-c5nc6cc[nH]c(=O)c6cc5-c5ccccc5)cc4)CC3)c2c1 [Borussertib] (10 µM)
inactive: IRAK3 = 0 | JAK1 = 0 | LCK 0 | LIMK1 = 0 | LIMK2 = 0 | LMTK2 = 0 | LYN 0 | MAP2K1 = 0 | MAP2K2 = 0 | MAP4K2 = 0

CC(=O)O[C@H]1[C@H]2[C@@H](OC(=O)Cc3ccccc3)[C@@H](C)C[C@]2(OC(C)=O)C(=O)/C(C)=C/[C@@H]2[C@H](CC[C@@]13CO3)C2(C)C [Euphorbiasteroid] (10 µM)
inactive: IRAK3 = 0 | JAK1 = 0 | LCK 0 | LIMK1 = 0 | LIMK2 = 0 | LMTK2 = 0 | LYN 0 | MAP2K1 = 0 | MAP2K2 = 0 | MAP4K2 = 0

CC(C)(C)c1cc(C=C(C#N)C#N)cc(Br)c1O (2.5 µM)
inactive: IRAK3 = 0 | JAK1 = 0 | LCK 0 | LIMK1 = 0 | LIMK2 = 0 | LMTK2 = 0 | LYN 0 | MAP2K1 = 0 | MAP2K2 = 0 | MAP4K2 = 0

Cc1n[nH]cc1-c1cc2nc([C@@H]3CC4CCN3CC4)[nH]c(=O)c2s1 [Simurosertib] (2.5 µM)
inactive: IRAK3 = 0 | JAK1 = 0 | LCK 0 | LIMK1 = 0 | LIMK2 = 0 | LMTK2 = 0 | LYN 0 | MAP2K1 = 0 | MAP2K2 = 0 | MAP4K2 = 0

COc1cc2c(cc1F)C(c1ccccc1Cl)=Nc1c(n[nH]c1C)N2 (0.5 µM)
inactive: IRAK3 = 0 | JAK1 = 0 | LCK 0 | LIMK1 = 0 | LIMK2 = 0 | LMTK2 = 0 | LYN 0 | MAP2K1 = 0 | MAP2K2 = 0 | MAP4K2 = 0

COc1ccc2c(c1OC)C(OC)N(C)c1c-2ccc2cc3c(cc12)OCO3 (stereo not given) [Angoline] (10 µM)
inactive: IRAK3 = 0 | JAK1 = 0 | LCK 0 | LIMK1 = 0 | LIMK2 = 0 | LMTK2 = 0 | LYN 0 | MAP2K1 = 0 | MAP2K2 = 0 | MAP4K2 = 0

COc1ccc2c(c1)/C(=C/c1cnc[nH]1)C(=O)N2 (2.5 µM)
inactive: IRAK3 = 0 | JAK1 = 0 | LCK 0 | LIMK1 = 0 | LIMK2 = 0 | LMTK2 = 0 | LYN 0 | MAP2K1 = 0 | MAP2K2 = 0 | MAP4K2 = 0

C[C@H](Nc1ncnc2[nH]cnc12)c1nc2ccc(F)cc2c(=O)n1-c1ccccc1 [Acalisib] (10 µM)
inactive: IRAK3 = 0 | JAK1 = 0 | LCK 0 | LIMK1 = 0 | LIMK2 = 0 | LMTK2 = 0 | LYN 0 | MAP2K1 = 0 | MAP2K2 = 0 | MAP4K2 = 0

N#CC(C#N)=Cc1ccc([N+](=O)[O-])c(O)c1 (10 µM)
inactive: IRAK3 = 0 | JAK1 = 0 | LCK 0 | LIMK1 = 0 | LIMK2 = 0 | LMTK2 = 0 | LYN 0 | MAP2K1 = 0 | MAP2K2 = 0 | MAP4K2 = 0

COc1ccc2c(c1)[nH]c1c(C)nccc12 [Harmine] (10 µM)
inactive: IRAK3 = 0 | JAK1 = 0 | LCK 0 | LIMK1 = 0 | LIMK2 = 0 | LMTK2 = 0 | LYN 0 | MAP2K1 = 0 | MAP2K2 = 0 | MAP4K2 = 0

O=c1cc(O)c2ccccc2o1 [4-Hydroxycoumarin] (10 µM)
inactive: IRAK3 = 0 | JAK1 = 0 | LCK 0 | LIMK1 = 0 | LIMK2 = 0 | LMTK2 = 0 | LYN 0 | MAP2K1 = 0 | MAP2K2 = 0 | MAP4K2 = 0

Cc1ccccc1-n1c(Cn2cnc3c(N)ncnc32)nc2cccc(C)c2c1=O (10 µM)
inactive: IRAK3 = 0 | JAK1 = 0 | LCK 0 | LIMK1 = 0 | LIMK2 = 0 | LMTK2 = 0 | LYN 0 | MAP2K1 = 0 | MAP2K2 = 0 | MAP4K2 = 0

CC(=O)Oc1ccc(/C=C/c2cc(OC(C)=O)cc(OC(C)=O)c2)cc1 [Triacetylresveratrol] (10 µM)
inactive: IRAK3 = 0 | JAK1 = 0 | LCK 0 | LIMK1 = 0 | LIMK2 = 0 | LMTK2 = 0 | LYN 0 | MAP2K1 = 0 | MAP2K2 = 0 | MAP4K2 = 0

O=Cc1cn(Cc2ccc(Cl)cc2)c2ccccc12 [Oncrasin-1] (10 µM)
inactive: IRAK3 = 0 | JAK1 = 0 | LCK 0 | LIMK1 = 0 | LIMK2 = 0 | LMTK2 = 0 | LYN 0 | MAP2K1 = 0 | MAP2K2 = 0 | MAP4K2 = 0

C/C=C(/C)C(=O)O[C@H]1[C@@H]2[C@H](C)C(=O)O[C@@H]2C[C@@H](C)[C@@H]2C=CC(=O)[C@]21C [Brevilin A] (2.5 µM)
inactive: IRAK3 = 0 | JAK1 = 0 | LCK 0 | LIMK1 = 0 | LIMK2 = 0 | LMTK2 = 0 | LYN 0 | MAP2K1 = 0 | MAP2K2 = 0 | MAP4K2 = 0

CC(=O)OC(C)(C)/C=C/C(=O)[C@](C)(O)[C@H]1[C@H](O)C[C@@]2(C)[C@@H]3CC=C4[C@@H](C=C(O)C(=O)C4(C)C)[C@]3(C)C(=O)C[C@]12C [Cucurbitacin E] (2.5 µM)
inactive: IRAK3 = 0 | JAK1 = 0 | LCK 0 | LIMK1 = 0 | LIMK2 = 0 | LMTK2 = 0 | LYN 0 | MAP2K1 = 0 | MAP2K2 = 0 | MAP4K2 = 0

O=C(/C=C/c1ccccc1)OC[C@H]1O[C@@H](O[C@@H]2OC=C[C@H]3[C@H](O)[C@@H]4O[C@]4(CO)[C@@H]23)[C@H](O)[C@@H](O)[C@@H]1O [Picroside I] (10 µM)
inactive: IRAK3 = 0 | JAK1 = 0 | LCK 0 | LIMK1 = 0 | LIMK2 = 0 | LMTK2 = 0 | LYN 0 | MAP2K1 = 0 | MAP2K2 = 0 | MAP4K2 = 0

C[C@@H]1CC[C@H]2[C@@H](C)C(=O)O[C@@H]3O[C@@]4(C)CC[C@@H]1[C@]32OO4 [Artemisinin] (10 µM)
inactive: IRAK3 = 0 | JAK1 = 0 | LCK 0 | LIMK1 = 0 | LIMK2 = 0 | LMTK2 = 0 | LYN 0 | MAP2K1 = 0 | MAP2K2 = 0 | MAP4K2 = 0
